# Source: publication PMC12040169 (PLOS Biology, 2025)
# The list shows a part of the results.
# System: T1, CTL2-GFP (C. trachomatis L2/434/Bu, GFP-expressing)
# T1 construct: L2/434/Bu, GFP-expressing
# Design: species or system HeLa; Intracellular C. trachomatis growth in HeLa cells, bulk GFP fluorescence relative to DMSO
# Conditions: bulk GFP, single well; 28.5 h, 10 µM; inhibitor
row,SMILES,% of control remaining
1,COCCNc1ncnc2sc3c(c12)CCCC3 [CBK287583],107.289%
2,O=C(NC(=S)Nn1cnnc1)c1ccccc1 [CBK028188],110.978%
3,Cc1nc(C2CN(Cc3cc4ccccc4nc3Cl)CCO2)no1 (centres unmarked) [CBK305381],106.444%
4,O=C(Nc1ccc(I)cc1C(=O)NCCN1CCOCC1)c1ccccc1Cl [CBK266245],64.907%
5,O=C(/C(=C\c1ccc([N+](=O)[O-])cc1)n1cncn1)c1ccc(Cl)cc1Cl [CBK262145],82.017%
6,C[C@]1(CO)[C@H]2Cc3sc(-c4ccccc4)nc3[C@@H](CC(=O)O)[C@]2(C)CC[C@H]1O [CBK289572],139.697%
7,CCOc1ccc(NCCCCO)cc1 [CBK264386],125.731%
8,Cc1nc(C(Cc2ccsc2)NC(=O)Cn2cccn2)sc1C (centres unmarked) [CBK284781],141.221%
9,Cc1csc2c(N3CCC(NCCCc4cnn(C)c4)CC3)ncnc12 [CBK307291],136.172%
10,O=C(Nc1ccc2c(c1)OCCO2)N1CCN(c2cc(C(F)(F)F)ccn2)CC1 [CBK162331],113.781%
11,CN(C)CC1(O)C2CN3CCN(C2)CC1(c1ccccc1)C3 (centres unmarked) [CBK263029],119.203%
12,CC1CCN(S(=O)(=O)c2cccc(C(=O)N3CCC(C(=O)O)CC3)c2)CC1 [CBK266790],86.364%
13,Cc1nc(O)cc(C2CCCN(C(=O)c3csc4c3CCCC4)C2)n1 (centres unmarked) [CBK306696],155.917%
14,CC(=O)Nc1ccc(NC(=O)C2C3CCC(C3)C2C(=O)O)cc1 (centres unmarked) [CBK263534],130.655%
15,O=C1N=C(NC2CCCCCC2)SC1Cc1nc2ccccc2[nH]1 (centres unmarked) [CBK066789],132.518%
16,O=C(Nc1cccc(-c2noc(Cc3ccccc3)n2)c1)c1cccs1 [CBK270244],68.5202%
17,Cc1cc(S)c2cc(Br)ccc2n1 [CBK288445],140.904%
18,N=c1c2c3c(sc2ncn1CCCn1ccnc1)CCCC3 [CBK264211],100%
19,CC(C)c1nc(CCNC(=O)C2(Cn3ccnc3)CC2)no1 [CBK306828],145.535%
20,COc1ccc2c(c1)OC1(CCN(C(=O)c3ccc(C(C)=O)cc3)CC1)CC2=O [CBK156457],103.888%
21,O=C(COc1cccnc1)N1CCN(C(=O)c2ccco2)CC1 [CBK144482],119.007%
22,COc1ccc(CC(=O)N2CCCC2c2cccc(Cc3ccc(F)cc3)n2)cc1 (centres unmarked) [CBK286233],116.789%
23,O=C(NCc1ccco1)c1c(NC(=O)C2CCCO2)sc2c1CCC2 (centres unmarked) [CBK268180],97.1736%

# Rewritten tab-delimited: entries from further up.
row	SMILES	% of control remaining
2	O=C(NC(=S)Nn1cnnc1)c1ccccc1 [CBK028188]	110.978%
5	O=C(/C(=C\c1ccc([N+](=O)[O-])cc1)n1cncn1)c1ccc(Cl)cc1Cl [CBK262145]	82.017%
9	Cc1csc2c(N3CCC(NCCCc4cnn(C)c4)CC3)ncnc12 [CBK307291]	136.172%
18	N=c1c2c3c(sc2ncn1CCCn1ccnc1)CCCC3 [CBK264211]	100%
19	CC(C)c1nc(CCNC(=O)C2(Cn3ccnc3)CC2)no1 [CBK306828]	145.535%
21	O=C(COc1cccnc1)N1CCN(C(=O)c2ccco2)CC1 [CBK144482]	119.007%
22	COc1ccc(CC(=O)N2CCCC2c2cccc(Cc3ccc(F)cc3)n2)cc1 (centres unmarked) [CBK286233]	116.789%
